Source: patent US4710500A, “1-(4'-fluorophenyl)-3,5-substituted indoles useful in the treatment of psychic disorders and pharmaceutical compositions thereof” (H. Lundbeck A/S, priority 1985, dated 1987)
Counter-ions that a name gives are not always drawn. At least one compound was matched to its structure with a doubt left.

Protein sequences, listed by entry. Tags and fused reporters are not part of them.
UniProt P14842, whole entry: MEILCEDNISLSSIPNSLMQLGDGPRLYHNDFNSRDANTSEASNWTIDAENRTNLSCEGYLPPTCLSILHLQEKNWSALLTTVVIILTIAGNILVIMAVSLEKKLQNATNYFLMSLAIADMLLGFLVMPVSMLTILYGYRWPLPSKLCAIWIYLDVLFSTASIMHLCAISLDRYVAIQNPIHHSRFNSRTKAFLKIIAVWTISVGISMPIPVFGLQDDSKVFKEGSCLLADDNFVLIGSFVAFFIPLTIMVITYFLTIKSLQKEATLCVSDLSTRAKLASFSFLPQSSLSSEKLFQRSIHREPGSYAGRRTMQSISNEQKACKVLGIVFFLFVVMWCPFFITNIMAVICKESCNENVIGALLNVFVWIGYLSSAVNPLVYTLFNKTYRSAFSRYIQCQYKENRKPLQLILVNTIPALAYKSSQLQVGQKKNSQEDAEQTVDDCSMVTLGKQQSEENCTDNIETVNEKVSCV

Legend:
5-HT2 receptor = target: T1, 5-HT2 receptor (Rattus norvegicus, UniProt P14842); test: Quipazine inhibition (head twitches); assay type: in vivo; conditions: sc 2 hours before quipazine 15 umol/kg sc
T1 construct: from tissue; host or cells: living rats (in vivo), CNS
Description: Quipazine and a number of other compounds, which increase 5-HT2 receptor activity in the CNS, induce a characteristic rapid shake (twitch) of the head. This response is inhibited by 5-HT2 receptor antagonists (Vetulani et al. 1980, Arnt et al. 1984).
The test compound or saline is injected subcutaneously 2 hours before subcutaneous injection of quipazine hemimalecate (15umol/kg). At least 3 dose groups, each consisting of at least 4 rats, are used. The rats are individually placed in observation cages (12×25 cm) and the number of head twitches are counted 30-40 min after quipazine administration. Inhibition of head twitches is expressed in per cent of the number of head twitches in the control group. ED 50 values are calculated by log-probit analysis.
Vetulani, J., B.B. Beduarczyk, K. Reichenberg and A. Rokost: Neuropharmacology 19, 155-158, […].
Arnt, J., J. Hyttel and J.-J. Larsen: Acta pharmacol. et toxicol. 55, 363-372, 1984.

[1] = tested on: methylphenidate-induced gnawing; test: Methylphenidate antagonism; assay type: in vivo; conditions: *ED50 from sc administration; mice; methylphenidate s.c. 60 mg/kg

O=C1NCCN1CCN1CC=C(c2cn(-c3ccc(F)cc3)c3ccc(F)cc23)CC1 [Lu 21-046, oxalate]
Qvipaz. inh. ED50(sc) (5-HT2 receptor): 0.23 µmol/kg

CN1CCN(c2cn(-c3ccc(F)cc3)c3ccc(C(F)(F)F)cc23)CC1 [Lu 21-123, 1-(4'-Fluorophenyl)-3-(4-methylpiperazio)-5-trifluoromethyl-1H-indole, dihydrochloride]
Qvipaz. inh. ED50(sc) (5-HT2 receptor): 0.035 µmol/kg

O=C1CCCN1CCN1CCC(c2cn(-c3ccc(F)cc3)c3ccc(C(F)(F)F)cc23)CC1 [Lu 23-158, 1-(4'-Fluorophenyl)-3-(1-(1-pyrrolidin-2-onylethyl)-4-piperidyl)-5-trifluoromethyl-1H-indole, fumarate]
Qvipaz. inh. ED50(sc) (5-HT2 receptor): 0.11 µmol/kg

O=C1NCCN1CCN1CCC(c2cn(-c3ccc(F)cc3)c3ccc(Cl)cc23)CC1 [Lu 23-174, 5-Chloro-1-(4'-fluorophenyl)-3-(1-(2-imidazolidinon-1-ylethyl)-4-piperidyl)-1H-indole, maleate]
MePh Antg. ED50 (sc) [1]: > 72 µmol/kg
